According to PubChem BioAssay AID1347075 (National Center for Advancing Translational Sciences (NCATS), 2019):
Among all 400,000 compounds or so, about 5,500 (1.4%) were called active. The inconclusive results got no clear call from the source; some entries with a clear call stand among them for comparison. The call rests on the fitted dose curve; in most records, active means well fitted cell-killing curve with a large enough effect; inconclusive means small, poorly fitted or top-dose-only effect, or effect the other way; inactive means flat fitted curve, though single readings scatter. Potencies beside an inconclusive call are fits to weak or partial responses and may not hold up.
On the % scale 0 is the no-effect control and ±100 the full control effect; potency means the concentration at half of the fitted maximal effect.

Experiment: qHTS assay for MDR1-selective chemotherapeutics: Primary screen using the parental adenocarcinoma cell KB-3-1; further: nearly all actives have a fitted effect of over 60% in size
Conditions: KB-3-1 viability, CellTiter-Glo ATP luminescence, 72 h; activity change, negative = cytotoxic: at 46.1 µM (top of the series)
Outline: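 KB-3-1 cells, DMEM (no phenol red) + 10% FBS; compound by pin transfer, 72 h, 37 °C. Readout: CellTiter-Glo luminescence after 10 min. Data normalized, curve-fitted.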
For CCOC(=O)N1CCN(CC(O)COC2CC(C)CCC2C(C)C)CC1 (stereo unspecified), the “activity change, negative = cytotoxic” value was inactive: -7.91%. For COc1ccc2c(c1)c1c(c(=O)n(CCc3ccccc3)c(=O)n1Cc1cccc(Cl)c1)n2C, the “activity change, negative = cytotoxic” value was inactive: 2.52%. With CCC(c1nnnn1-c1ccc2c(c1)OCCO2)N1CCN(c2cc(C)ccc2C)CC1 (stereo unspecified) the Potency was inconclusive: 20.6 µM [cytotoxic, single point]. In the case of C(=N\Nc1nc(-c2ccccc2)cs1)/c1ccncc1, the “activity change, negative = cytotoxic” value is reported as inactive: -2.03%. With CC1(C)CC(=O)C=C(C#CC2(O)CCCCC2)C1 the Potency was active: 23.1 µM. In the case of C=CCNC(=S)N/N=C/c1ccc(C(F)(F)F)cc1, the Potency is reported as inconclusive: 8.2 µM [cytotoxic, partial curve]. With Cc1nnc(Sc2cc(C(=O)NCCCN(C)Cc3ccccc3)c3ccccc3n2)s1 the Potency was inconclusive: 29.1 µM [cytotoxic, single point]. In the case of COC(=O)C1(Cc2ccc3c(c2)CCC3)Cc2ccc3c(c2C1=O)CCC3 (stereo unspecified), the Potency is reported as active: 5.8 µM. In the case of CCOC(=O)c1ccc(NC(=O)Cn2cnc3cc(C)c(C)cc32)cc1, the Potency is reported as inconclusive: 20.6 µM [cytotoxic, single point]. In the case of CCOc1ccc(CN2CCc3nc(N4CCN(c5ccccc5OC)CC4)ncc3C2)cc1OC, the Potency is reported as inconclusive: 20.6 µM [cytotoxic, single point]. With CC(C)(C)OC(=O)N1CCC(c2c(C(=O)NCc3cccc(Cl)c3)cnn2-c2ccc(F)cc2)CC1 the Potency was inconclusive: 29.1 µM [cytotoxic, single point]. In the case of CCOC(=O)c1cc(CC)sc1N1C(=O)CC(Sc2ccccc2C(=O)O)C1=O (stereo unspecified), the “activity change, negative = cytotoxic” value is reported as inactive: -0.519%. For Cc1ccc(NC(=O)c2n[nH]c(=O)c3ccccc23)cc1S(=O)(=O)N1CCOCC1, the “activity change, negative = cytotoxic” value was inactive: 13.1%. In the case of O=C(OCc1ccc(Br)cc1)c1cc([N+](=O)[O-])ccc1N1CCOCC1, the Potency is reported as active: 5.8 µM. In the case of O=C(/C(=C/c1ccc(Cl)cc1)c1nc2ccccc2[nH]1)c1ccccc1, the Potency is reported as active: 5.17 µM. With Cn1nccc1C(=O)NC1CCCc2c1cnn2-c1ccc(F)cc1F (stereo unspecified) the Potency was inconclusive: 0.184 µM [cytotoxic, full curve]. For N#CC(C#N)=CN=c1ccn(Cc2ccc(Cl)cc2Cl)cc1, the Potency was active: 16.4 µM. In the case of CCOC(=O)c1c(-c2ccc(OC)cc2)nc2nonc2c1N, the Potency is reported as inconclusive: 23.1 µM [cytotoxic, single point]. In the case of COC(=O)CCSc1nc(N2CCOCC2)c2c(c1C#N)CC(C)(C)OC2, the “activity change, negative = cytotoxic” value is reported as inactive: 14.3%. For Cc1cc2cc(CN(Cc3cccs3)C(=S)NCc3ccco3)c(=O)[nH]c2cc1C, the Potency was inconclusive: 29.1 µM [cytotoxic, single point]. For CNCCNC[C@H](Cc1cccc2ccccc12)NCCc1ccccc1, the “activity change, negative = cytotoxic” value was inactive: -2.17%. For CC(C)CNC(=O)C(=O)NN=C1CCCCCC1, the activity change, negative = cytotoxic was inconclusive: 30.4%. In the case of COC(=O)c1ccccc1NC(=O)C1CC(=O)N(c2ccc(OC)cc2)C1 (stereo unspecified), the Potency is reported as inconclusive: 23.1 µM [cytotoxic, single point]. With CCn1nc(C)c2c(-c3ccccc3)cc(=O)n(C(C)C(=O)NCCC(C)C)c21 (stereo unspecified) the “activity change, negative = cytotoxic” value was inactive: 5.24%. With Cn1c(CNC(=O)c2ccccc2F)nnc1SCC(=O)N1CCN(c2ccccc2)CC1 the Potency was inconclusive: 18.4 µM [rising, single point]. In the case of Cc1ccc(C)c(-n2c(-c3ccc(Br)cc3)csc2=NC(=O)c2ccccc2F)c1, the Potency is reported as active: 11.6 µM. In the case of C=CCn1c(C)cc(C(=O)Cn2ncc(Cl)c(Cl)c2=O)c1C, the Potency is reported as inconclusive: 16.4 µM [cytotoxic, single point]. For COc1ccc(CNS(=O)(=O)c2ccc(N3CCCCS3(=O)=O)cc2)cc1, the Potency was active: 16.4 µM. With CS(=O)(=O)c1ccc(S(=O)CC(=O)OCc2ccccc2)c([N+](=O)[O-])c1 (stereo unspecified) the “activity change, negative = cytotoxic” value was inactive: 11.7%. For Cc1ccc2c(c1)c1c3n2CCN(C(=O)C2CC2)C3CCC1 (stereo unspecified), the “activity change, negative = cytotoxic” value was inactive: -10.7%. In the case of O=C(Nc1ccc(Cl)cn1)C1CCN(c2ncnc3c2nc2n3CCCCC2)CC1, the Potency is reported as inconclusive: 29.1 µM [cytotoxic, single point]. With Cc1ccc(C(=O)COC(=O)c2nc(Cl)ccc2Cl)cc1 the Potency was inconclusive: 18.4 µM [rising, single point]. With NC(=O)c1ccc(Oc2ccc3ccc(=O)oc3c2)c([N+](=O)[O-])c1 the “activity change, negative = cytotoxic” value was inactive: 7.03%. For CC[C@H]1c2[nH]c3ccccc3c2C[C@@H]2C(=O)N(c3ccc(F)cc3)C(=O)N21, the “activity change, negative = cytotoxic” value was inactive: -6.18%. In the case of Cc1ccc(NC(=O)Cn2c(=O)n(Cc3nc(-c4ccccc4)no3)c(=O)c3cc4c(cc32)OCO4)cc1F, the “activity change, negative = cytotoxic” value is reported as inactive: 5.36%. For NC(=O)C(OC(=O)CNC(=O)C1CCCCC1)c1ccccc1 (stereo unspecified), the Potency was inconclusive: 23.1 µM [rising, partial curve, poor fit]. For COc1ccc(C2CC(C(F)(F)F)n3nc(CO)c(Cl)c3N2)cc1OC (stereo unspecified), the activity change, negative = cytotoxic was inconclusive: -30.9% [cytotoxic]. For O=C(NCc1ccccc1C(F)(F)F)c1cccc2c1C(=O)c1ccc(N3CCC(N4CCCCC4)CC3)cc1S2(=O)=O, the “activity change, negative = cytotoxic” value was inactive: -4.25%. For N#Cc1c2ccc(OCC(N)=O)cc2n2ccccc12, the Potency was inconclusive: 23.1 µM [cytotoxic, partial curve, poor fit]. In the case of O=C(COc1ccccc1F)Nc1ccc2nc(SCCOc3ccccc3)sc2c1, the “activity change, negative = cytotoxic” value is reported as inactive: 1.58%. With Cc1noc(C)c1CSCC(=O)N(C)CC(=O)Nc1ccc(F)cc1 the Potency was inconclusive: 29.1 µM [cytotoxic, single point]. With C/C(=N\NC(=O)c1ccc(Br)cc1)C1C(=O)c2ccccc2C1=O the Potency was inconclusive: 18.4 µM [cytotoxic, single point]. For O=C(O)c1cccc(S(=O)(=O)Nc2ccc(-c3ccccc3)cc2)c1, the Potency was inconclusive: 29.1 µM [rising, single point]. With CC(C)CC1C(=O)N(Cc2cn(CC3CCCCC3)nn2)CCS(=O)(=O)N1Cc1ccc(-c2ccc(F)nc2)cc1 (stereo unspecified) the Potency was inconclusive: 18.4 µM [cytotoxic, single point]. In the case of CCn1c(SCC(=O)Nc2nnc(C)s2)nnc1-c1ccncc1, the Potency is reported as inconclusive: 9.2 µM [rising, partial curve]. With Cc1c(C(=O)NCc2ccc(Cl)c(Cl)c2)sc(=O)n1Cc1ccc(C(=O)N(C)C)cc1 the Potency was inconclusive: 29.1 µM [cytotoxic, single point]. In the case of COc1ccccc1N(C(=O)NCc1ccccc1)C1=NCC(C)S1 (stereo unspecified), the Potency is reported as inconclusive: 2.91 µM [rising, full curve]. With Cc1ccc2c(c1Br)C(O)(CC(=O)c1ccc(F)cc1)C(=O)N2 (stereo unspecified) the “activity change, negative = cytotoxic” value was inactive: 11.1%. For CSc1ccc(C(=O)C2CCCN(C(=O)c3cc4cc(F)ccc4[nH]3)C2)cc1 (stereo unspecified), the Potency was inconclusive: 0.411 µM [cytotoxic, full curve]. For Cc1c(NC(=O)/C(C#N)=C/c2ccc(-c3ccc(Cl)c(Cl)c3)o2)c(=O)n(-c2ccccc2)n1C, the “activity change, negative = cytotoxic” value was inactive: -7.42%. For CCOC(=O)c1ccc(N2C(=O)c3[nH]nc(-c4ccccc4)c3C2c2ccc(CC)cc2)cc1 (stereo unspecified), the Potency was inconclusive: 29.1 µM [cytotoxic, single point]. In the case of COc1ccc(C(=O)N2N=C3CC(C)(C)OCC3C2c2ccccc2)cc1 (stereo unspecified), the Potency is reported as inconclusive: 16.4 µM [rising, partial curve, poor fit]. For Cc1ccc(NC(=S)N2CCN(S(=O)(=O)c3ccccc3)CC2)cc1, the “activity change, negative = cytotoxic” value was inactive: -6.05%. For O=C(c1ccc2c(c1)N(Cc1ccccc1F)C(=O)c1ccccc1S2(=O)=O)N1CCC(Cc2ccccc2)CC1, the Potency was inconclusive: 9.2 µM [cytotoxic, partial curve, poor fit]. For O=C(Cn1c(=O)n(Cc2nc(-c3ccccc3)no2)c(=O)c2ccccc21)Nc1cccc(C(F)(F)F)c1, the Potency was inconclusive: 7.31 µM [cytotoxic, partial curve]. With O=S(=O)(Nc1ccc2c3c(cccc13)CC2)c1ccc(F)cc1 the Potency was inconclusive: 23.1 µM [cytotoxic, single point]. With O=C(CCN1C(=O)c2cccnc2C1=O)NC1CCCCCC1 the “activity change, negative = cytotoxic” value was inactive: 0.312%. With CCN(CC)c1ccc(NS(=O)(=O)c2ccc3c(c2)oc(=O)n3C)c(C)c1 the “activity change, negative = cytotoxic” value was inactive: -30%. In the case of COc1cccc(/C=N/n2c(C3CCCCC3)n[nH]c2=S)c1, the “activity change, negative = cytotoxic” value is reported as inactive: 0.564%. In the case of COCCCNC(=O)c1cccc2c(-c3ccc(OC)cc3C)coc12, the Potency is reported as inconclusive: 29.1 µM [cytotoxic, single point]. In the case of CCN(CC)Cc1c(C)[nH]c2ccc(NC(C)=O)cc2c1=O, the Potency is reported as inconclusive: 25.9 µM [rising, single point]. For CCN(Cc1nc2ccccc2c(=O)[nH]1)C(=O)c1cccc(OCc2c(C)noc2C)c1, the Potency was inconclusive: 16.4 µM [cytotoxic, single point]. For Cn1cc(-c2cc3n(n2)CCC(=O)N3CCCC(=O)NCc2ccc(Cl)cc2)c2ccccc21, the “activity change, negative = cytotoxic” value was inactive: 5.03%. With COc1cc(/C=N/NC(=O)c2cc(-c3cccc(Br)c3)nc3ccccc23)cc(OC)c1O the Potency was inconclusive: 0.184 µM [rising, full curve]. With Cc1ccc(N2CC(c3nc4ccccc4n3C)CC2=O)cc1C (stereo unspecified) the “activity change, negative = cytotoxic” value was inactive: 7.29%. For Cc1ccc2[nH]c(C(=O)N/N=C/c3ccccc3C(=O)O)c(-c3ccccc3)c2c1, the “activity change, negative = cytotoxic” value was inactive: 3.93%. In the case of N#CCC(=O)N1CCN(Cc2ccc3c(c2)OCO3)CC1, the “activity change, negative = cytotoxic” value is reported as inactive: 1.09%. With O=C(C[n+]1ccc(-c2cc(C(=O)Nc3cccc(C(F)(F)F)c3)c3ccccc3n2)cc1)c1cccc([N+](=O)[O-])c1 the Potency was inconclusive: 14.6 µM [cytotoxic, partial curve]. With O=S(Cc1ccc(Cl)cc1)CC(O)COc1ccc(Cl)cc1 (stereo unspecified) the Potency was inconclusive: 18.4 µM [cytotoxic, single point]. With O=C(Nc1nnc(C2CC2)o1)c1ccc(S(=O)(=O)N2CCCc3ccccc32)cc1 the Potency was inconclusive: 18.4 µM [cytotoxic, single point]. With COc1nc(C#N)nc(N(C)C)n1 the Potency was inconclusive: 23.1 µM [rising, single point].
